Measured values reported in article PMC10403887.
Results are given in words; binding and its absence hold for the method and conditions named. In cells and extracts the contact can be indirect. Some entries that bind do so weakly or less than the wild type. For some assays here: Where a sequence is shown, tags or fusion partners need not be part of it. Values belong to the binder of their own block, whether it stands above or below them.

Legend:
[1] = molecular target: T1, V5-tagged CCDC137 (human) (UniProt Q6PK04); test: co-IP; HEK293T cells transfected 48 h with V5-tagged CCDC137 and SFB-tagged DGCR8; lysed in Enhanced RIPA Lysis Buffer with Benzonase Nuclease; precipitated with V5 affinity gel and blotted with anti-Flag (Fig. 6c), or precipitated with S-protein Agarose and blotted with anti-V5 (Fig. 6d); V5-GFP or SFB-GFP as controls
T1 sequence: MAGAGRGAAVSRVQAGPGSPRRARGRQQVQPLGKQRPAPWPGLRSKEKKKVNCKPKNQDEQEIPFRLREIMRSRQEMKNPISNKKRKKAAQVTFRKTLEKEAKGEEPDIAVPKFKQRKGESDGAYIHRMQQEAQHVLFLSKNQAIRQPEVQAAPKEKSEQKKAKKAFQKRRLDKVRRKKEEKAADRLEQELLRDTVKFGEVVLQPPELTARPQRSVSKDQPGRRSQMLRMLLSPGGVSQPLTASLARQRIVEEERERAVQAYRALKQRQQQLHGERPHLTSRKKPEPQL

[2] = molecular target: T2, CCDC137 (endogenous, JHH-7 cells) (human (endogenous in JHH-7)) (UniProt Q6PK04); test: co-IP; endogenous proteins in JHH-7 lysate (Enhanced RIPA Lysis Buffer with Benzonase Nuclease); precipitated with CCDC137 antibody (Proteintech 27201-1-AP, 2 ug) or Normal Rabbit IgG; Western blot; beta-actin as negative control
T2 sequence: T1 sequence

- binding [1]: binds
B1: SFB-tagged DGCR8 (protein, UniProt Q8WYQ5 1-773)
chain: METDESPSPLPCGPAGEAVMESRARPFQALPREQSPPPPLQTSSGAEVMDVGSGGDGQSELPAEDPFNFYGASLLSKGSFSKGRLLIDPNCSGHSPRTARHAPAVRKFSPDLKLLKDVKISVSFTESCRSKDRKVLYTGAERDVRAECGLLLSPVSGDVHACPFGGSVGDGVGIGGESADKKDEENELDQEKRVEYAVLDELEDFTDNLELDEEGAGGFTAKAIVQRDRVDEEALNFPYEDDFDNDVDALLEEGLCAPKKRRTEEKYGGDSDHPSDGETSVQPMMTKIKTVLKSRGRPPTEPLPDGWIMTFHNSGVPVYLHRESRVVTWSRPYFLGTGSIRKHDPPLSSIPCLHYKKMKDNEEREQSSDLTPSGDVSPVKPLSRSAELEFPLDEPDSMGADPGPPDEKDPLGAEAAPGALGQVKAKVEVCKDESVDLEEFRSYLEKRFDFEQVTVKKFRTWAERRQFNREMKRKQAESERPILPANQKLITLSVQDAPTKKEFVINPNGKSEVCILHEYMQRVLKVRPVYNFFECENPSEPFGASVTIDGVTYGSGTASSKKLAKNKAARATLEILIPDFVKQTSEEKPKDSEELEYFNHISIEDSRVYELTSKAGLLSPYQILHECLKRNHGMGDTSIKFEVVPGKNQKSEYVMACGKHTVRGWCKNKRVGKQLASQKILQLLHPHVKNWGSLLRMYGRESSKMVKQETSDKSVIELQQYAKKNKPNLHILSKLQEEMKRLAEEREETRKKPKMSIVASAQPGGEPLCTVDV

- binding [2]: binds
B2: DGCR8 (endogenous, JHH-7 cells) (protein, UniProt Q8WYQ5 1-773)
chain: B1 chain
